# Measurements reported in PubChem BioAssay AID463205 (Broad Institute, 2010).
# The campaign covered roughly 2,400 compounds. About 20 (0.8%) were called active.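 Rule for the calls: active = AC50 no more than ten times the highest tested concentration, or full inhibition at every dose giving a flat fit (cut at about 30 µM in these data); inconclusive = flat fit with activity between 30% and 70%, or poor-quality invalid fit; inactive = AC50 more than ten times the top tested dose.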 This is one part of the list.
# Assay: luciferase-based ADP detection interference – biochemical, luminescence, cell-free, homogeneous, artefact control for GSK-3a inhibitor project, dose response (AID 463205);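 note: kinase-free counter-screen against the ADP-Glo detection reagents only; potency is for inhibitors that reduce the luminescence signal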
# Conditions: Cell-free ADP-Glo detection reagents, 5 uM ADP
row,Structure (SMILES),AC50
1,O=C(O)c1cc(-c2ccc(/C=N/N3C(=O)C4C5C=CC(C6CC56)C4C3=O)o2)ccc1Cl (centres undefined),inactive: > 30 µM
2,Cc1cc(NC(=O)c2sc(Nc3ccc(F)cc3)nc2N)no1,inactive: > 30 µM
3,C[C@H](NC(=O)c1nc[nH]c1C(=O)NC1CCNCC1)C(=O)OCc1ccccc1,inactive: > 30 µM
4,CCOC(=O)c1ccc(N2CSC3=C(C#N)C(c4cccs4)CC(=O)N3C2)cc1 (centres undefined),inactive: > 30 µM
5,Cn1c(N=Nc2ccccc2)nc2ccccc21,active: 27.9 µM
6,CC(=O)c1cccc(-c2ccc3c(=O)[nH]c(Nc4ccccc4)cc3c2)c1,inactive: > 30 µM
7,Clc1ccc(Nc2ncn[nH]2)cc1,inactive: > 30 µM
8,COc1ccc2nc(C)cc(N3CCN(S(=O)(=O)c4ccccc4F)CC3)c2c1,inactive: > 30 µM
9,CCn1ncc([N+](=O)[O-])c1C(=O)N1CCCC1,inactive: > 30 µM
10,COc1ccccc1N1CCN(CCC(=O)Nc2cccc(Cl)c2)CC1,inactive: > 30 µM
11,COC(=O)c1nnn(-c2ccccc2)c1N,inactive: > 30 µM
12,Cc1onc(-c2ccccc2Cl)c1C(=O)Nc1ccc(-c2cn3cccnc3n2)cc1,inactive: > 30 µM
13,C[n+]1cccc(/C=N/Nc2nc(Cl)c(C#N)c(Cl)c2Cl)c1,inactive: > 30 µM
14,Cc1ccc(NC(=O)CSc2nnc(-c3ccncc3)s2)cc1,inactive: > 30 µM
15,O=C1CCCC/C1=C\Nc1ccc(O)cc1,inactive: > 30 µM
16,CNc1nc(N)c([N+](=O)[O-])c(N2CCCCCC2)n1,inactive: > 30 µM
17,COc1ccc(CCNC2=C(Cl)C(=O)N(Cc3ccccc3)C2=O)cc1OC,inactive: > 30 µM
18,Cc1ccc(C(=O)c2c(NC(=O)CSc3nnc(N)s3)sc3c2CCCC3)cc1,inactive: > 30 µM
19,CCS(=O)(=O)N1CCN(c2ccnc3cc(Cl)ccc23)CC1,inactive: > 30 µM
20,O=c1[nH]c2c(s1)C(c1ccc(O)cc1)C1C3CCC(C3)C1S2 (centres undefined),inactive: > 30 µM
21,COC1(OC)N=C(N)C2(C#N)C(c3ccc4c(c3)OCO4)C12C#N (centres undefined),inactive: > 30 µM
22,O=C(NCc1ccc2c(c1)OCO2)c1cc(COc2c(F)cccc2F)on1,inactive: > 30 µM
23,Cc1oc2ccc(O)c(CN(C)C)c2c1C(=O)c1ccccc1,inactive: > 30 µM
24,COc1ccc(-c2ncncc2-c2ccc(OC)c(OC)c2)c(O)c1,inactive: > 30 µM

row,Structure (SMILES),AC50
1,Nc1ncnc2c1ncn2[C@H]1C[C@H](O)[C@@H](CO)O1,inactive: > 30 µM
2,O=C1CCCN1CCCNc1ncccc1[N+](=O)[O-],inactive: > 30 µM
3,O=C(NCCCn1ccnc1)C(F)(F)C(F)(F)C(=O)NCCCn1ccnc1,inactive: > 30 µM
4,O=C1CC(/C=C/c2ccncc2)=Nc2ccccc2N1,inactive: > 30 µM
5,NC(=O)c1c(NC(=O)CN2C(=O)NC(Cc3ccccc3)C2=O)sc2c1CCC2 (centres undefined),inactive: > 30 µM
6,O=C(Nc1ncc([N+](=O)[O-])s1)c1ccc2c(c1)OCO2,inactive: > 30 µM
7,Cc1nc(SCC(=O)NCC2CCCO2)c2c3c(sc2n1)CCC3 (centres undefined),inactive: > 30 µM
8,Cc1ccccc1N=Nc1c(O)[nH]c2ccccc12,inactive: > 30 µM
9,O=C(CSCc1ccccn1)Nc1ccccc1,inactive: > 30 µM
10,C[C@H](CO)N1C[C@H](C)[C@@H](CN(C)S(=O)(=O)c2ccc(F)cc2)Oc2c(NC(=O)Nc3ccccc3)cccc2C1=O,inactive: > 30 µM
11,N#CC1=C2SCN(Cc3ccccc3)CN2C(=O)CC1c1ccccc1F (centres undefined),inactive: > 30 µM
12,Cc1ccc2nc(Cl)c(/C=N/Nc3ccc(C(=O)O)cc3)cc2c1,inactive: > 30 µM
13,Cc1nc2c(C)cccn2c1/C(O)=C1\C(=O)C(=O)N(CCN2CCOCC2)C1c1cccs1 (centres undefined),inactive: > 30 µM
14,COc1cccc(-c2c(C(=O)N/N=C/c3ccoc3)nnn2-c2nonc2N)c1,inactive: > 30 µM
15,CCc1ccc(/C=N/NC(=O)c2nnn(-c3nonc3N)c2C(C)C)cc1,inactive: > 30 µM
16,COCCCNc1nc2nonc2nc1NCCSC,inactive: > 30 µM
17,Cc1nnc(SCC(=O)Nc2ccc(Br)cn2)[nH]c1=O,inactive: > 30 µM
18,Cc1cc(N2CCN(c3ccccc3)CC2)n2ncnc2n1,inactive: > 30 µM
19,CCN1/C(=C/C(C)=O)Sc2ccc(OC)cc21,inactive: > 30 µM
20,O=C(Nc1c(C(=O)C2CC2)oc2ccccc12)c1ccc(Cl)cc1,inactive: > 30 µM
21,Cc1cccc(-c2nnc3n2N=C(c2ccc(Br)cc2)CS3)c1,inactive: > 30 µM
22,Nc1nonc1-n1nnc(C(=O)N/N=C/c2ccco2)c1-c1ccccc1,inactive: > 30 µM
23,CC(=O)Nc1sc2c(c1C(N)=O)CCCC2,inactive: > 30 µM
24,CC1(C)CC(=O)C(C=NCCc2ccc(O)cc2)=C(O)C1,inactive: > 30 µM

# Exported bar-delimited: entries from further up
row | Structure (SMILES) | AC50
3 | O=C(NCCCn1ccnc1)C(F)(F)C(F)(F)C(=O)NCCCn1ccnc1 | inactive: > 30 µM
4 | O=C1CC(/C=C/c2ccncc2)=Nc2ccccc2N1 | inactive: > 30 µM
5 | NC(=O)c1c(NC(=O)CN2C(=O)NC(Cc3ccccc3)C2=O)sc2c1CCC2 (centres undefined) | inactive: > 30 µM
6 | O=C(Nc1ncc([N+](=O)[O-])s1)c1ccc2c(c1)OCO2 | inactive: > 30 µM
7 | Cc1nc(SCC(=O)NCC2CCCO2)c2c3c(sc2n1)CCC3 (centres undefined) | inactive: > 30 µM

# Further structures.

row,Structure (SMILES),AC50
1,Cc1ccc(Nc2nc(-c3cccnc3)nc3ccccc23)cc1,inactive: > 30 µM
2,CCN(CC)c1ccc(C2C(C(=O)OC(C)C)C(=O)CC(C)(O)C2C(=O)OC(C)C)cc1 (centres undefined),inactive: > 30 µM
3,O=C(CCSCCc1ccccn1)Nc1ccc(Cl)cn1,inactive: > 30 µM
4,O=C1c2cnc3nc(SCc4ccccc4)nn3c2CC2c3ccccc3CCN12 (centres undefined),inactive: > 30 µM
5,S=c1[nH]nc(-c2cc3c(s2)-c2ccccc2CC3)o1,inactive: > 30 µM
6,CCN(CC)c1ccc(/C=C2\NC(=O)NC2=O)cc1,inactive: > 30 µM
7,CC(C)(C)C(=O)NC(=S)Nc1sc2c(c1C(N)=O)CCC2,inactive: > 30 µM
8,CCOC(=O)c1cc(CC)sc1NC(=O)C1CC1,inactive: > 30 µM
9,c1ccc2c(c1)ccc1nnc(SCc3ccc4c(c3)OCO4)n12,inactive: > 30 µM
10,COC(=O)C1(C#N)C(c2ccccc2)C1(C(=O)OC)C(=O)OC (centres undefined),inactive: > 30 µM
11,c1ccc2sc(-c3ccc4c(c3)OCO4)nc2c1,inactive: > 30 µM
12,Cc1ccsc1C(=O)OCC(=O)N1C(C)CCCC1C (centres undefined),inactive: > 30 µM
13,Cc1ccc(N2CC(C(=O)Nc3nccs3)CC2=O)cc1 (centres undefined),inactive: > 30 µM
14,CN(C)c1ccc(/C=N/NC(=O)c2ccccc2Cl)cc1,inactive: > 30 µM
15,C=CCNc1nc(N)c(C(=O)Nc2cc(C)on2)s1,inactive: > 30 µM
16,COC(=O)c1ccc2c(=O)[nH]c(COC(=O)c3cccc(S(=O)(=O)N4CCOCC4)c3)nc2c1,inactive: > 30 µM
17,O=C(NCc1ccccc1)c1ccc2c(=O)[nH]c3c(C(=O)NCC4CCCO4)sc(=S)n3c2c1 (centres undefined),inactive: > 30 µM
18,CC(OC(=O)c1cccc(N2C(=O)c3ccccc3C2=O)c1)C(=O)Nc1ccc(N(C)C)cc1 (centres undefined),inactive: > 30 µM
19,COCCCNc1nc2ccccc2[nH]c1=O,inactive: > 30 µM
20,COc1ccc(NC(=O)c2ccc(NCCCN3CCOCC3)c([N+](=O)[O-])c2)cc1,inactive: > 30 µM
21,O=C(CSc1ccccn1)Nc1nc2ccc(Br)cc2s1,inactive: > 30 µM
22,CCC(C)[C@H](NC(=O)Nc1ccc(S(N)(=O)=O)cc1)C(=O)O (some centres undefined),inactive: > 30 µM
23,CSc1ccc(/C=N/NC(=O)c2ccccc2Cl)cc1,inactive: > 30 µM
24,Cc1ccccc1OCCSc1nnc(C)n1-c1ccccc1,inactive: > 30 µM

row,Structure (SMILES),AC50
1,CCC(=O)/C=C1\Sc2ccc(OC)cc2N1CC,inactive: > 30 µM
2,COc1ccccc1NC(=O)c1cc(Cl)ccc1NC(=O)c1ccco1,inactive: > 30 µM
3,CN(Cc1c(C(=O)N/N=C/c2ccc(F)cc2)nnn1-c1nonc1N)C1CCCCC1,inactive: > 30 µM
4,CC(C)COC(=O)N1CCCC1C(=O)Nc1nccs1 (centres undefined),inactive: > 30 µM
5,CCCCC(NS(=O)(=O)c1ccc(OC)cc1)C(=O)O (centres undefined),inactive: > 30 µM
6,Fc1ccc(-c2nc3n(n2)Cc2ccccc2-3)cc1,inactive: > 30 µM
7,COc1ccccc1Nc1nc(Cl)c(C=O)s1,inactive: > 30 µM
8,COc1ccccc1N=c1oc2cc(O)ccc2cc1C(N)=O,inactive: > 30 µM
9,CN(C)c1ccc(CN2CCCCC2)cc1,inactive: > 30 µM
10,CCN(CC)C(=O)c1oc2ccc(S(=O)(=O)N3CCCCCC3)cc2c1C,inactive: > 30 µM
11,Cc1cc(N/N=C/c2ccccc2Br)nc2ccccc12,inactive: > 30 µM
12,C#CCOCCOCCOCCNc1nc(N2CCOCC2)nc(N2CCN(C(=O)[C@H](CCC(=O)O)n3cc([C@@H](N)CCCCN)nn3)CC2)n1,inactive: > 30 µM
13,C=CCNC(=S)N/N=C(\C)c1ccc(OC)cc1,inactive: > 30 µM
14,COc1ccc(-c2nsc3c(N4CCCCC4C)ncnc23)cc1 (centres undefined),inactive: > 30 µM
15,COC(=O)C1=C(C(=O)OC)C(c2cc(Cl)ccc2O)c2sc(=O)[nH]c2S1 (centres undefined),inactive: > 30 µM
16,Oc1ccc(-c2csc(Nc3ccccn3)n2)c(O)c1,inactive: > 30 µM
17,CCOC(=O)c1oc2ccc3c(c2c1C)C(=O)CC1(CCN(C(=O)OCC)CC1)O3,inactive: > 30 µM
18,Brc1ccccc1C1=Nn2c(nnc2-c2ccco2)SC1,inactive: > 30 µM
19,CC(C)NC(=O)c1sc2nc3c(c(-c4cccs4)c2c1N)CN(C)CC3,inactive: > 30 µM
20,Cc1cc(NC(=O)COC(=O)c2cc(S(=O)(=O)N3CCOCC3)ccc2N2CCCCC2)no1,inactive: > 30 µM
21,CCn1c2ccc(F)cc2c2nc3ccccc3nc21,inactive: > 30 µM
22,COC(=O)c1c(C)c(OC(=O)c2c(C)cc(O)c(C=O)c2O)cc(C)c1O,inactive: > 30 µM
